Counter-ions that a name gives are not always drawn. The list shows a part of the results. Cut-off read from the data, not from the text of the source: active = 0.7 or more and inactive = the rest. Many values rest on one well or one pass, so single values are uncertain.

Data on eleven molecules can be found in the supplement of paper PMC12872613.

The subject of this assay is MiaPaCa-2 CLSA-25. In words: cell death relative to DMSO vehicle (fraction); higher = more cytotoxic. To be noted: 5 µM; treatment time 48 h; medium cystine 25 µM.
Turning to `C[C@H]1c2cccc(O)c2C(=O)C2=C(O)[C@]3(O)C(=O)C(C(N)=O)=C(O)[C@@H](N(C)C)[C@@H]3[C@@H](O)[C@@H]21` [Doxycycline hyclate], the cell death was inactive: 0.0976. The result for `CC(=O)OCC(=O)[C@@]1(O)CC[C@H]2[C@@H]3CCC4=CC(=O)CC[C@]4(C)[C@@]3(F)[C@@H](O)C[C@@]21C` [Fludrocortisone acetate] reads inactive: 0.0492. For `COc1ccc(CNc2nc(N3CCC[C@H]3CO)ncc2C(=O)NCc2ncccn2)cc1Cl` [Avanafil], the cell death was inactive: 0.181. For the molecule `C[C@H](O)[C@@H](O)[C@@H](O)[C@H](O)C=O` [L-(-)-Fucose], the cell death was active: 0.73. For the molecule `COc1ccc(-c2ccc3cc(C(=O)O)ccc3c2)cc1C12CC3CC(CC(C3)C1)C2` [Adapalene], the cell death was inactive: 0.173. Take `Oc1ccc(OC2CCCCO2)cc1` (stereo unspecified) [Deoxyarbutin]: the cell death is inactive: 0.0869. In the case of `Cc1cnc(Nc2ccc(N3CCN(C)CC3)cc2)nc1Nc1cccc(S(=O)(=O)NC(C)(C)C)c1`, the cell death is active: 0.779. Take `Cn1cc(-c2ccncc2)c(-c2ccc(OCc3ccc4ccccc4n3)cc2)n1`: the cell death was inactive: 0.602. With `Cc1c(NC(=O)c2cc(C(N)=O)nc3cc(F)ccc23)c(C(F)(F)F)nn1Cc1ccc(C#N)cc1`, the cell death is active: 0.79. Regarding `CCc1cc(C(N)=S)ccn1` [Ethinamide], the cell death is inactive: 0.143. The figure for `CC(C)(CO)[C@@H](O)C(=O)NCCC(=O)O` [D-Pantothenic acid sodium salt] is inactive: 0.464.
